In this assay the target is T1, Dab2 on the HuProt v3.1 human proteome array (human) (UniProt P98082).
T1 sequence: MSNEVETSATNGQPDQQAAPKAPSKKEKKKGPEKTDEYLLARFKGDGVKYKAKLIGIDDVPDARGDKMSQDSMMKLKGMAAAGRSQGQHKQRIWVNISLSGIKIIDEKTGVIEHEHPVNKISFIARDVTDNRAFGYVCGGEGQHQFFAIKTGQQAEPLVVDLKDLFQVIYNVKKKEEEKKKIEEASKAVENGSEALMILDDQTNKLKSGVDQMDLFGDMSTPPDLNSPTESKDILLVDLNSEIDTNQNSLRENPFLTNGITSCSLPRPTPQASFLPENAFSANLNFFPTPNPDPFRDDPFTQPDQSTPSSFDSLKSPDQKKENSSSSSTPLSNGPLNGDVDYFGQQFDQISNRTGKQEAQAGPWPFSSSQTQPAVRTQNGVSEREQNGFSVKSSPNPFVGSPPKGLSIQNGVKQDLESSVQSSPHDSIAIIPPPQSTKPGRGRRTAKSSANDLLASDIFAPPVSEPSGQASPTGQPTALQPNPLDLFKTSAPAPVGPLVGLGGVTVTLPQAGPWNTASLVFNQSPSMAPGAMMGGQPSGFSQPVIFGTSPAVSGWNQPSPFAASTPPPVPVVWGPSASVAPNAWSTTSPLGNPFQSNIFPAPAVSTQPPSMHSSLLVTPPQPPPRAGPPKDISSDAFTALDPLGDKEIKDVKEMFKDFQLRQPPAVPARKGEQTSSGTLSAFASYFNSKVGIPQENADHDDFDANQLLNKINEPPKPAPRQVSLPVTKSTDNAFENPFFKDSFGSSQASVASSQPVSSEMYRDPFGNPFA
As to the kind of experiment: peptide or protein array; recombinant LCN-2 probed at 1 ug/mL on HuProt v3.1 human proteome array plates; triplicate; hits with Z-score above 6; both purified.

Results are given in words; binding and its absence hold for the method and conditions named. Binding calls can cover weak binding; strength is not graded here.

In the case of Recombinant LCN-2 (lipocalin-2), the binding entry was “binds”.

Values taken from article PMC6754381.
